Test results: publication PMC10378556
Results are given in words; binding and its absence hold for the method and conditions named. Binding seen in cells or lysates may run through a third protein. Some entries that bind do so weakly or less than the wild type.

Protein sequences, listed by entry. Tags and fused reporters are not part of them.
UniProt Q9C0C2: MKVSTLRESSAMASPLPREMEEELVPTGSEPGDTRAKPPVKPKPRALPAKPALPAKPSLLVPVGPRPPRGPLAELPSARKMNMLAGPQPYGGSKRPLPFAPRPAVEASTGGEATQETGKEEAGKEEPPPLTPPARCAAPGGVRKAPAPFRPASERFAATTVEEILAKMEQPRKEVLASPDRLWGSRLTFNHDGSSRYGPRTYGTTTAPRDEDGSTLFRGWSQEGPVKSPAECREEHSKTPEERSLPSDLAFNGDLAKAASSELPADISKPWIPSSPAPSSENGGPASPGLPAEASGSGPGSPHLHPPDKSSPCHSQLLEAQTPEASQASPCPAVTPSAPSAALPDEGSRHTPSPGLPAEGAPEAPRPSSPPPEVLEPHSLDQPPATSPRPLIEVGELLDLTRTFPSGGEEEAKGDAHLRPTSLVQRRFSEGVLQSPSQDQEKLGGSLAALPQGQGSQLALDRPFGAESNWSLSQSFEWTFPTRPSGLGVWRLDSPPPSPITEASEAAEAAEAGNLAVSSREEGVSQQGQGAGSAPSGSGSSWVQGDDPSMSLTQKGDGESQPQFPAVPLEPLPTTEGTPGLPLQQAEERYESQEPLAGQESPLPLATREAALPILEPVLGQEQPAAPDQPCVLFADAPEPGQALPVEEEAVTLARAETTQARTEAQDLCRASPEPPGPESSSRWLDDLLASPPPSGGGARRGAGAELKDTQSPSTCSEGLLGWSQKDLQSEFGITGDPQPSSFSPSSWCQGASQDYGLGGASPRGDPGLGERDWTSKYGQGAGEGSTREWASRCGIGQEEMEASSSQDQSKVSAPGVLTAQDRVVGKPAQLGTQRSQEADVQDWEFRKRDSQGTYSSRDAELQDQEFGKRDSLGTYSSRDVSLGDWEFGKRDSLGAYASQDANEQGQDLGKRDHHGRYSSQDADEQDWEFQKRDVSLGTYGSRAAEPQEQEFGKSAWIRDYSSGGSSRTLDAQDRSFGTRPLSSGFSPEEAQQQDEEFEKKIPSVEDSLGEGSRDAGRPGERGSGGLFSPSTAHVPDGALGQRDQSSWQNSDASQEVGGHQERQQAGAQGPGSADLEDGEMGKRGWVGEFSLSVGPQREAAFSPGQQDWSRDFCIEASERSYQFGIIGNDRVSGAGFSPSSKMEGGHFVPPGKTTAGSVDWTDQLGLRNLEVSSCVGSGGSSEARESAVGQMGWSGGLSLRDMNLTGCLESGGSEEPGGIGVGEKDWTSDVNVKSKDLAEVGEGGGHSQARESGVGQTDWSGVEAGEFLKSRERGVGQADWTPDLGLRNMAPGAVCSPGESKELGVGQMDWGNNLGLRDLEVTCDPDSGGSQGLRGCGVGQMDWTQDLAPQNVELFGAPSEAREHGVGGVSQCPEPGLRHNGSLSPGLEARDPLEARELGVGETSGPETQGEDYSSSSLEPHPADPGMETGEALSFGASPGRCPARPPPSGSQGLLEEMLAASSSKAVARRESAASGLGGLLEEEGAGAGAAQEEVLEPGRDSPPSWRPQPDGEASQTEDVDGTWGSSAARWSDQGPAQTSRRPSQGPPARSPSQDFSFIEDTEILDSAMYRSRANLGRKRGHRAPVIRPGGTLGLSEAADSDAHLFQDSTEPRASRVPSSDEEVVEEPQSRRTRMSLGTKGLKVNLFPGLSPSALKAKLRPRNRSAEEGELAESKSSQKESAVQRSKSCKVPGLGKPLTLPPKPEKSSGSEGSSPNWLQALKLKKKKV
UniProt A5YKK6: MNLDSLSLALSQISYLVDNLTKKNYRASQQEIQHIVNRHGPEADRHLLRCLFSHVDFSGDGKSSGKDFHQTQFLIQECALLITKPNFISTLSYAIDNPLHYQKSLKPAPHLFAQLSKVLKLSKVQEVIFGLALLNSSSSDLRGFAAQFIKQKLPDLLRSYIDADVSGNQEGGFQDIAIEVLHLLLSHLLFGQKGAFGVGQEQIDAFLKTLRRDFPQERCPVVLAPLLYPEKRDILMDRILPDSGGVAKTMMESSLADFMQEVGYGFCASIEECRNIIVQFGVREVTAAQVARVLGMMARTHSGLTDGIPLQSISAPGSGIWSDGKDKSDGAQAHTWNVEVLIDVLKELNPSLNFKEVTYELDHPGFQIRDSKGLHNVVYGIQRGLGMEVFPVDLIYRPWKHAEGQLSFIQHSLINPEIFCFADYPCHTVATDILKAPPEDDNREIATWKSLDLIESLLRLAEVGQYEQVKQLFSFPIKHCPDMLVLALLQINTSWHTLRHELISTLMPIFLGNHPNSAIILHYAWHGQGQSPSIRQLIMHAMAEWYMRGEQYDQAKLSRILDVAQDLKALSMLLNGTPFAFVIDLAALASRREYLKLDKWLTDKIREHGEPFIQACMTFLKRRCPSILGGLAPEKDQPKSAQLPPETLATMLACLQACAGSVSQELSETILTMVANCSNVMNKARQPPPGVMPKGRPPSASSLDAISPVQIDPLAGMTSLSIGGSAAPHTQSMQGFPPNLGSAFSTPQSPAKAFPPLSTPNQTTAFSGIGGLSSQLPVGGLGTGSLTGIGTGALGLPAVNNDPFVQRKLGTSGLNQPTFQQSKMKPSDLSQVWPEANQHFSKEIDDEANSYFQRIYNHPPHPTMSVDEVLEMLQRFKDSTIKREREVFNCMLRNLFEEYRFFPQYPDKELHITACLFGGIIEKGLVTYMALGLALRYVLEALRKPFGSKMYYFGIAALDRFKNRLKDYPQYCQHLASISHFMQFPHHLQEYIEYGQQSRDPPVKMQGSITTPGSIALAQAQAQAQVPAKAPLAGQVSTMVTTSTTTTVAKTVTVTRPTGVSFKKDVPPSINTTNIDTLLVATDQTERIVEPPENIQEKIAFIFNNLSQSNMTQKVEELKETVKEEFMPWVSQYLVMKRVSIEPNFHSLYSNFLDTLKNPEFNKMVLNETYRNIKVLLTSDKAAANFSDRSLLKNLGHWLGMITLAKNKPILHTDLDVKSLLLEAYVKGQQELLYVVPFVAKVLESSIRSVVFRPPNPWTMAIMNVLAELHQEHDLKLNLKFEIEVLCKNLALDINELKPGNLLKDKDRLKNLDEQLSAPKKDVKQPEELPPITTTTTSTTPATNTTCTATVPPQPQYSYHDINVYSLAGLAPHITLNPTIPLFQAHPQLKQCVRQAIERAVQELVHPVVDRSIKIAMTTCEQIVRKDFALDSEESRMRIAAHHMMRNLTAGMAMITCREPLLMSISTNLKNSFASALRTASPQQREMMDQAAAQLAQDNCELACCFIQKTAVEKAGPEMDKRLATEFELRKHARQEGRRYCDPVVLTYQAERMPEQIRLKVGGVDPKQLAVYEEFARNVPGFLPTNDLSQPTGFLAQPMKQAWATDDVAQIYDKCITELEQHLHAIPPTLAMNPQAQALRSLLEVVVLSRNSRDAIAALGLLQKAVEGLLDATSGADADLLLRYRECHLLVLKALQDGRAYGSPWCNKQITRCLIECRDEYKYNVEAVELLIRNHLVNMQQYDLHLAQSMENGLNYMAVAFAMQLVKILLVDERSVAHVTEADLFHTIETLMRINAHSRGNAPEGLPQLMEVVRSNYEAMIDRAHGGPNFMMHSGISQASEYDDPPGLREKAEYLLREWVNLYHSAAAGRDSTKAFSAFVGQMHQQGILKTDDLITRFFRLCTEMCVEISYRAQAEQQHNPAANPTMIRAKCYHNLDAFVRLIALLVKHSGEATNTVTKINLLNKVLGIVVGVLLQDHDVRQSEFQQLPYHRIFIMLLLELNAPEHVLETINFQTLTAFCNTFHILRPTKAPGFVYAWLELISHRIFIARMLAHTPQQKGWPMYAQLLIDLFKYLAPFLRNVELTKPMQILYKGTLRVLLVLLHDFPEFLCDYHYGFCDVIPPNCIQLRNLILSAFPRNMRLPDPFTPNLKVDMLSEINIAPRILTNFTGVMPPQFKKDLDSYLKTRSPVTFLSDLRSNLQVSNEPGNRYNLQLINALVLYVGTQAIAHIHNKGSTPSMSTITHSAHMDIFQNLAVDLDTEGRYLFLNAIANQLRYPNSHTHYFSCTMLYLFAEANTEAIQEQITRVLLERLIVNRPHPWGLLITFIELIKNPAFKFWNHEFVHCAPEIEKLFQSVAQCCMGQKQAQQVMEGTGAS
UniProt P49736: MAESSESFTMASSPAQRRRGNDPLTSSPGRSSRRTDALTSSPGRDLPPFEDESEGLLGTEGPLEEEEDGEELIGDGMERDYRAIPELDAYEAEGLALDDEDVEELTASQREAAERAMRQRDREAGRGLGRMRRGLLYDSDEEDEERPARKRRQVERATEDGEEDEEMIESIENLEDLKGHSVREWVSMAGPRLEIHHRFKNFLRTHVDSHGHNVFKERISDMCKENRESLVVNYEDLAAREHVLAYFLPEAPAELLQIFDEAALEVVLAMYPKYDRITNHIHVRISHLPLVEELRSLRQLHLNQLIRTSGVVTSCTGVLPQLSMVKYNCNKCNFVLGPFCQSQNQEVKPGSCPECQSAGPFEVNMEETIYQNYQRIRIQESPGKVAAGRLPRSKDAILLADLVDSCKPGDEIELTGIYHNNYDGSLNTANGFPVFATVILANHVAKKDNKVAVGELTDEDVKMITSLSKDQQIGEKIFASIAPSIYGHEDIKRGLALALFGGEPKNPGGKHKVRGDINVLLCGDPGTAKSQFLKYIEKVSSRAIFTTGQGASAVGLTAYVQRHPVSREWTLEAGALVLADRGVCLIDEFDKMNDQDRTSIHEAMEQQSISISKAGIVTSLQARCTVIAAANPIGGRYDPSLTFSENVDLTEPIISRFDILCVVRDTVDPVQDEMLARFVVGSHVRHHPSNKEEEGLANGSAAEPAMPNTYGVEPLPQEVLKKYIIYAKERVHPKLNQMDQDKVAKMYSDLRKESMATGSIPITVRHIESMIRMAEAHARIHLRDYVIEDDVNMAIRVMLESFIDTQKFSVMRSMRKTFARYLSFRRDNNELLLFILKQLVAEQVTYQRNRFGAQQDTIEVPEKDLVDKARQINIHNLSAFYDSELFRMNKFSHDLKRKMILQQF

B1: ORC3 (protein, UniProt Q9UBD5 1-711)
chain: MATSSMSKGCFVFKPNSKKRKISLPIEDYFNKGKNEPEDSKLRFETYQLIWQQMKSENERLQEELNKNLFDNLIEFLQKSHSGFQKNSRDLGGQIKLREIPTAALVLGVNVTDHDLTFGSLTEALQNNVTPYVVSLQAKDCPDMKHFLQKLISQLMDCCVDIKSKEEESVHVTQRKTHYSMDSLSSWYMTVTQKTDPKMLSKKRTTSSQWQSPPVVVILKDMESFATKVLQDFIIISSQHLHEFPLILIFGIATSPIIIHRLLPHAVSSLLCIELFQSLSCKEHLTTVLDKLLLTTQFPFKINEKVLQVLTNIFLYHDFSVQNFIKGLQLSLLEHFYSQPLSVLCCNLPEAKRRINFLSNNQCENIRRLPSFRRYVEKQASEKQVALLTNERYLKEETQLLLENLHVYHMNYFLVLRCLHKFTSSLPKYPLGRQIRELYCTCLEKNIWDSEEYASVLQLLRMLAKDELMTILEKCFKVFKSYCENHLGSTAKRIEEFLAQFQSLDETKEEEDASGSQPKGLQKTDLYHLQKSLLEMKELRRSKKQTKFEVLRENVVNFIDCLVREYLLPPETQPLHEVVYFSAAHALREHLNAAPRIALHTALNNPYYYLKNEALKSEEGCIPNIAPDICIAYKLHLECSRLINLVDWSEAFATVVTAAEKMDANSATSEEMNEIIHARFIRAVSELELLGFIKPTKQKTDHVARLTWGGC

What was measured:
[1] = biological target: Tankyrase 1 Binding Protein 1 (human (endogenous in HeLa)) (UniProt Q9C0C2); experiment: co-IP; HeLa cell lysates in NETN buffer (0.15 M NaCl, 40 mM Tris, 5 mM EDTA, pH 7.4) incubated overnight with CNOT1, Tab182 or irrelevant (collagen V) antibody; Protein G-agarose beads; Western blot of the co-precipitated proteins; for ATR also lysates of cells with and without ATR inhibitor AZD6738 (2 uM, 2 h)
[2] = biological target: CNOT1 (human (endogenous in HeLa)) (UniProt A5YKK6); experiment: as above

| Molecule | binding [1] | binding [2] |
| --- | --- | --- |
| ATR (from UniProt Q13535 1-2644) (enzyme) | binds | binds |
| MCM2 (from UniProt P49736 1-904) | binds | binds |
| B1 | binds | binds |
